{"source": "paper PMC7862700", "note": "This is a selection; strong and weak results do not stand in their true shares. At the low end of the ranking the order means little.", "data": [{"target": "SPI1 (UniProt P17947)", "assay": "DAPPL (digital affinity profiling via proximity ligation, sequencing)", "settings": "10 mM Tris-HCl pH 7.5, 50 mM NaCl, 1 mM DTT, 4% glycerol, room temperature, 30 min; GST-TFs on glutathione beads, 16-mer random dsDNA library, 0.1% …; high values mean tight binding; double strand, one strand shown; scale: fold enrichment (6-mer frequency, TF over GST control)", "values": [{"sequence": "CTACAG", "binding signal": 0.962}, {"sequence": "TACAGC", "binding signal": 0.931}, {"sequence": "GACCGC", "binding signal": 0.881}, {"sequence": "ATATAG", "binding signal": 1.2}, {"sequence": "GGTAAT", "binding signal": 1.04}, {"sequence": "CACCTC", "binding signal": 0.999}, {"sequence": "GGCATA", "binding signal": 0.876}, {"sequence": "GGTGTT", "binding signal": 0.97}, {"sequence": "GTAAGC", "binding signal": 0.938}, {"sequence": "TGCGGT", "binding signal": 0.967}, {"sequence": "GAGAAT", "binding signal": 0.721}, {"sequence": "TTACTT", "binding signal": 1.59}, {"sequence": "TGGGAC", "binding signal": 0.939}, {"sequence": "CTCTCC", "binding signal": 1.41}, {"sequence": "CCACAC", "binding signal": 0.988}, {"sequence": "CCAAGA", "binding signal": 0.91}, {"sequence": "AAGTAT", "binding signal": 1.36}, {"sequence": "AAACGA", "binding signal": 1.1}, {"sequence": "GGTACT", "binding signal": 1.19}, {"sequence": "TTGAGA", "binding signal": 0.821}, {"sequence": "CGGCAA", "binding signal": 0.892}, {"sequence": "TCGAGG", "binding signal": 0.838}, {"sequence": "GAACTG", "binding signal": 1.2}, {"sequence": "CTGACA", "binding signal": 1.26}, {"sequence": "CTCGGT", "binding signal": 1.1}, {"sequence": "CCGCGG", "binding signal": 0.917}, {"sequence": "GTATGA", "binding signal": 0.949}, {"sequence": "ATTATA", "binding signal": 1.2}, {"sequence": "AAACCT", "binding signal": 1.18}, {"sequence": "GCAGCC", "binding signal": 0.9}, {"sequence": "GCGACC", "binding signal": 1.07}, {"sequence": "CCATAG", "binding signal": 0.84}, {"sequence": "GGCATT", "binding signal": 1.05}, {"sequence": "CACAGC", "binding signal": 0.966}, {"sequence": "TTGGGA", "binding signal": 0.978}, {"sequence": "AAACTT", "binding signal": 1.24}, {"sequence": "ACCGGT", "binding signal": 0.917}, {"sequence": "CACGCA", "binding signal": 0.944}, {"sequence": "TTAGCC", "binding signal": 0.958}]}]}
